A weaker result is weaker than the reference pair of the same experiment.
Tested on: VEGF165 (vascular endothelial growth factor 165) (Homo sapiens)
Assay: ELONA
Conditions: antibody-captured VEGF; signal one eighth of FITC-3R02; purified recombinant protein; protein details: R&D Systems, expressed in Sf21 insect cells; label: 5'-FITC; single-stranded DNA; variant of VEap121

Chains of the proteins cited; added tags and fusions are not shown. A line that says so, or that is headed by a name, gives the form on record, which may keep a tag or linker.
VEGF165 (vascular endothelial growth factor 165) (Homo sapiens), one chain, as listed by the source: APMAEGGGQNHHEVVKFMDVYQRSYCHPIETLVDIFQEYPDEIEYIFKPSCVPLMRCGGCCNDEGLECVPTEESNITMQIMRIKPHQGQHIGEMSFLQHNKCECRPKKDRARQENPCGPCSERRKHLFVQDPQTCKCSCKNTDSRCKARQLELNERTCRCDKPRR

Sequence: TGTGGGGGTGGACGGGCCGGGTAGA [FITC-VEap121]
- binding result: binds more weakly
